# Measurements as given in PubChem BioAssay AID1347075 (National Center for Advancing Translational Sciences (NCATS), 2019).
# Hit rate of the full screen: of about 400,000 compounds, about 5,500 (1.4%) were called active. Inconclusive means that the source gave no clear call. Such entries were picked first, then a sample of the others. The call rests on the fitted dose curve; in most records, active means well fitted cell-killing curve with a large enough effect; inconclusive means small, poorly fitted or top-dose-only effect, or effect the other way; inactive means flat fitted curve, though single readings scatter. Where the call is inconclusive, the potency comes from a doubtful curve fit.
# Assay: qHTS assay for MDR1-selective chemotherapeutics: Primary screen using the parental adenocarcinoma cell KB-3-1; further: nearly all actives have a fitted effect of over 60% in size
# Settings: KB-3-1 viability, CellTiter-Glo ATP luminescence, 72 h; activity change, negative = cytotoxic: at 46.1 µM (top of the series)
# Procedure, shortened: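 Luminescent ATP read-out (CellTiter-Glo) measures survival of drug-naive KB-3-1 cells after 72 h compound exposure at 37 °C. Titration series was screened from lowest to highest concentration, with DMSO vehicle plates as background controls.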
# On the % scale 0 is the no-effect control and ±100 the full control effect; potency means the concentration at half of the fitted maximal effect.
SMILES,"activity change, negative = cytotoxic",Potency
COc1cccc(CNc2ccc3[nH]c(=O)[nH]c3c2)c1OCc1ccccc1F,inactive: -25.4%,
COc1cc(-c2[nH]ncc2CN2CCc3sccc3C2)cc(OC)c1OC,,"inconclusive: 32.6 µM [cytotoxic, partial curve, poor fit]"
CCn1c(Cc2ccccc2)n[nH]c1=S,,"inconclusive: 29.1 µM [cytotoxic, single point]"
COc1ccc(OC)c(-n2c(CNC3CCN(Cc4ccccc4)CC3)nc3ccccc3c2=O)c1,,"inconclusive: 0.0103 µM [cytotoxic, full curve]"
N/C(=N\OC(=O)c1ccccc1)c1ccncc1,,"inconclusive: 20.6 µM [rising, partial curve, poor fit]"
CCOc1cc(/C=C/c2ccc3cccc([N+](=O)[O-])c3n2)ccc1OCC(=O)N(C)C,,"inconclusive: 29.1 µM [cytotoxic, single point]"
Cc1c(C(=O)Nc2cccc(S(=O)(=O)N3CCOCC3)c2)oc2ccc(Br)cc12,,"inconclusive: 2.91 µM [rising, full curve]"
COc1ccc2sc3ccccc3c(=O)c2c1,inactive: -13.7%,
O=C(N/N=C1\CC(c2ccccc2)Oc2ccccc21)c1cccnc1 (centres undefined),inactive: -11%,
O=[N+]([O-])c1ccccc1C=NNc1ccccc1,inactive: -2.81%,
Cc1ccc(C)c(SCC(=O)OC/C(O)=C(\C#N)c2nc3ccccc3[nH]2)c1,inactive: 3.78%,
Cc1cc2nc(N3C(=O)CNC3=S)sc2cc1C,,"inconclusive: 16.4 µM [cytotoxic, single point]"
CCOC(=O)c1ccc(Nc2cc(C)nc(-c3ccccc3)n2)cc1,inactive: -3.29%,
O=[N+]([O-])c1ccc(NNC(=S)Nc2ccc(F)cc2)cc1,,"inconclusive: 23.1 µM [cytotoxic, single point]"
O=C(CSc1nnc(-c2ccccc2)o1)c1ccc2c(c1)OCCO2,inactive: 0.942%,
COc1cc(OC)cc(C(=O)N/N=C/c2ccc(OC)c(COc3ccc(F)cc3)c2)c1,,"inconclusive: 5.17 µM [cytotoxic, partial curve, poor fit]"
COc1ccc(-c2c(C(=O)c3ccccc3)[nH]c(N)c2C(=O)c2ccc(Br)cc2)cc1OC,,"inconclusive: 16.4 µM [cytotoxic, single point]"
CCOC(=O)[C@H]1[C@H]2COc3ccc(Br)cc3[C@@H]2N2C(=O)CN(Cc3ccc(Cl)cc3)C(=O)[C@@]12C,,"inconclusive: 29.1 µM [rising, single point]"
Cc1ccc(C(=O)c2c3ccc([N+](=O)[O-])cc3[n+]([O-])n2CCC(N)=O)cc1,,"inconclusive: 16.4 µM [cytotoxic, single point]"
Nc1ccc(Oc2ncccn2)cc1,inactive: -15.4%,
CC1=C(C(=O)Nc2ccc(C)cc2C)C(c2cccc(Cl)c2)n2nc(C(=O)OC(C)C)nc2N1 (centres undefined),,"inconclusive: 29.1 µM [cytotoxic, single point]"
CC(C)(C)OC(=O)[C@H](Cc1ccccc1)NC(=O)c1nc[nH]c1C(=O)N1CCN(C(=O)OC(C)(C)C)CC1,,"inconclusive: 5.8 µM [cytotoxic, partial curve]"
CCOC(=O)c1c(S(=O)(=O)N2CCC(C(=O)Nc3ccc(C)c(Cl)c3)CC2)c(C)n(C)c1C,inactive: 17.2%,

SMILES,"activity change, negative = cytotoxic",Potency
Cc1csc(SC(C)C(=O)NCc2ccc3c(c2)OCO3)n1 (centres undefined),inactive: 1.76%,
Cc1ccc(OCC(=O)Nc2ccc(N3CCN(C(=O)c4ccco4)CC3)cc2)c(C)c1,,"inconclusive: 20.6 µM [cytotoxic, partial curve, poor fit]"
COc1cc(NC(=O)c2c(F)cccc2F)nc(OC)n1,inactive: -2.45%,
O=S(=O)(c1ccc(-c2cnc(C3CC3)o2)cc1)N1CCN(c2ccc(F)cc2)CC1,,"inconclusive: 0.58 µM [cytotoxic, full curve, poor fit]"
O=C(c1ccc([N+](=O)[O-])s1)N1CCN(c2cccc(Cl)c2)CC1,,"inconclusive: 20.6 µM [cytotoxic, single point]"
O=C(Nc1ccc(S(=O)(=O)N2CCCCC2)cc1)C1CCCN(C(=O)c2ccc(Cl)cc2)C1 (centres undefined),,active: 9.2 µM
O=C(CN(Cc1ccccc1)C(=O)CSc1nnc(COc2ccccc2)o1)NC1CCCC1,inactive: 13.4%,
Cc1ccc2nc(-c3cccc(NC(=O)c4ccco4)c3)[nH]c2c1,,"inconclusive: 29.1 µM [cytotoxic, single point]"
CN(C)c1ccc(C=c2c3ccccc3n3c2cc(-c2ccc(Cl)cc2)[n+]3C)cc1,,active: 7.31 µM
Cc1ccc(-c2ccc([C@H]3[C@H]4C=CC[C@@H](C)[C@@H]4C(=O)N3Cc3ccccc3)c(F)c2)cc1,,"inconclusive: 29.1 µM [cytotoxic, single point]"
COC(=O)c1c(NC(=O)c2ccccc2N(C)S(=O)(=O)c2ccccc2)sc2c1CCCC2,,active: 4.61 µM
O=[N+]([O-])c1ccc2c(c1)nc(CO)n2Cc1ccccc1,inactive: -9.7%,
Cc1ccc(Cn2ncc3c(N4CCN(CC#N)CC4)ncnc32)cc1,inactive: -12.5%,
CCc1nn(-c2cc(Oc3cccc4ccccc34)nc(-c3ccccc3)n2)c(N)c1C#N,,active: 5.8 µM
CC(=O)Nc1ccc(C)cc1-c1nc2ccccc2n(CC(=O)c2ccc(C)c(C)c2)c1=O,inactive: 9.49%,
CCOC(=O)c1c(N)n(-c2ccc(CC)cc2)c2nc3ccccc3nc12,inactive: 13.9%,
O=C(Cc1ccc([N+](=O)[O-])cc1)N/N=C/c1cccnc1,inactive: 8.21%,
COc1ccc([C@H]2C[C@H](n3cc(C4CC4)nn3)[C@@H](O)CN2C(=O)C2CCCCC2)cc1,inconclusive: 34.1%,
O=C(CNC(=O)c1ccccc1)OCC(=O)c1cccc2ccccc12,,"inconclusive: 32.6 µM [rising, partial curve, poor fit]"
Fc1ccccc1CSc1ncnc2c1oc1ccccc12,,"inconclusive: 18.4 µM [cytotoxic, single point]"
CC1(C)C(=O)C=CC(=O)C(C)(C)C(=O)C=CC(=O)C(C)(C)C2=CC=C(O2)C(C)(C)C(=O)C=CC1=O,,"inconclusive: 2.59 µM [cytotoxic, full curve, poor fit]"
CCOc1ccccc1N1CCN(C2=C(NS(=O)(=O)c3cccs3)C(=O)c3ccccc3C2=O)CC1,,"inconclusive: 18.4 µM [cytotoxic, single point]"
NS(=O)(=O)c1cc(C(=O)OCC(=O)Nc2ccc(Cl)cc2[N+](=O)[O-])ccc1Cl,inactive: -3.91%,

SMILES,"activity change, negative = cytotoxic",Potency
CCOC(=O)C1=CC[C@@H](c2cccc(C)c2)N(S(=O)(=O)c2ccc(C)cc2)[C@H]1C(=O)OCC,,"inconclusive: 29.1 µM [cytotoxic, single point]"
CCN1CCN(C(c2ccccc2Cl)c2sc3nc(-c4ccco4)nn3c2O)CC1 (centres undefined),inactive: -0.337%,
COC(=O)c1c(NC(=O)COC(=O)Cn2cnc3ccccc32)sc2c1CCCC2,,"inconclusive: 32.6 µM [rising, single point]"
N=c1n(Cc2ccccc2)c2ccccc2n1Cc1ccccc1,,"inconclusive: 18.4 µM [cytotoxic, single point]"
COc1ccc2sc(-c3ccc(N(C)C)cc3)c(C#Cc3cncn3C)c2c1,,active: 10.3 µM
COc1cccc(-c2nc(CS(=O)(=O)CC(=O)Nc3ccccc3Cl)c(C)o2)c1,,active: 14.6 µM
O=C(Nc1nnc(-c2ccccc2Cl)o1)c1nc2ccccc2s1,,"inconclusive: 23.1 µM [cytotoxic, single point]"
Cc1ccc(N2C(=O)c3cccc4c(N)ccc(c34)C2=O)c2cccnc12,,"inconclusive: 0.0092 µM [cytotoxic, full curve, poor fit]"
Fc1ccc(-n2cc(-c3ccccc3)c3c(=S)nc[nH]c32)cc1,,active: 18.4 µM
Cc1ccc(C)c(N2CCN(C(=O)c3ccc(Cn4c(=O)[nH]c5ccccc5c4=O)cc3)CC2)c1,,"inconclusive: 18.4 µM [cytotoxic, single point]"
CNC(=S)N/N=C/c1cc(C)n(-c2ccc(Cl)c(Cl)c2)c1C,inactive: 0%,
COc1ccc2c(c1)c(N1CCCC1=O)c(C(=O)Nc1cc(C)c(Cl)cc1OC)n2C,,"inconclusive: 4.61 µM [cytotoxic, full curve, poor fit]"
CCC[C@@H](CN1CCC[C@H]1CN1C(N)=NC[C@@H]1Cc1ccccc1)N1C[C@@H](Cc2ccccc2)N(CCCC2CCCC2)C1=N,inactive: -22.1%,
O=C(Nc1ccc(Br)cc1)c1cc(S(=O)(=O)NC2CCCC2)ccc1F,,active: 20.6 µM
COc1ccc(NC(=O)CN2CCN(c3ccccc3Cl)CC2)cc1,,"inconclusive: 29.1 µM [cytotoxic, single point]"
Fc1ccccc1COc1ccc(-c2nnn(Cc3ccccc3F)n2)cc1,,"inconclusive: 18.4 µM [cytotoxic, single point]"
O=C(Cn1nc2ccccc2n1)N/N=C/c1cc(Cl)cc([N+](=O)[O-])c1O,,"inconclusive: 16.4 µM [cytotoxic, single point]"
COc1cc(OC)cc(C(=O)N[C@H](C(=O)NCCc2c[nH]c3ccccc23)C(C)C)c1,,"inconclusive: 20.6 µM [rising, single point]"
CCOC(=O)c1ccccc1NC(=O)c1sc2ncn(Cc3cccc(F)c3)c(=O)c2c1C,inactive: 6.01%,
CC(C)Cc1nc2sc3c(=O)[nH]cnc3c2c2c1CCCC2,,"inconclusive: 29.1 µM [rising, single point]"
Cc1ccn(-c2n[nH]c(C)c2[N+](=O)[O-])n1,inactive: -0.482%,
Clc1ccc(OCCN2CCN(c3ncnc4sccc34)CC2)cc1,,"inconclusive: 0.0103 µM [cytotoxic, full curve, poor fit]"
COc1ccc(CC(=O)Nc2cccc(-c3nnc(-c4cccc(C)c4)o3)c2)cc1OC,inactive: -1.33%,
